PMC8032903

Protein sequences, listed by entry. Tags and fused reporters are not part of them. Lines headed by an entry give the natural chain unless they say otherwise; changes in a name come on top.
UniProt P11308: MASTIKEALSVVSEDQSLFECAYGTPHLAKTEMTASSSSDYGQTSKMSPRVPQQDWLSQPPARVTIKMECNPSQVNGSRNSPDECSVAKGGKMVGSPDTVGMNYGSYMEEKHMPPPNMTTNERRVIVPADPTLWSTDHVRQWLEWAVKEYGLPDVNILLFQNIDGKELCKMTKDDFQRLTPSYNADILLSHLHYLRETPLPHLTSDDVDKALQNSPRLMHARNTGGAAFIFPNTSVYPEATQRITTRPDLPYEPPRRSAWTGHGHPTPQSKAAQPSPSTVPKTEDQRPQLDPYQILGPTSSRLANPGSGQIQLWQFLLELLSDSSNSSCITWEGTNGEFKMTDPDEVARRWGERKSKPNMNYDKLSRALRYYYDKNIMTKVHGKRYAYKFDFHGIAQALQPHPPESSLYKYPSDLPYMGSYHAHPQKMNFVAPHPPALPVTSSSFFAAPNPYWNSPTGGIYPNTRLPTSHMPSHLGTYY

Biological target: Flag-ERG (ETS-related gene) (UniProt P11308)
Assay: co-IP; Flag-ERG and PIAS plasmids co-transfected into HEK293T cells; lysates immunoprecipitated with anti-Flag antibody (protein A agarose), blotted with anti-HA

B1: PIAS4 (enzyme, UniProt Q8N2W9 1-510)
chain: MAAELVEAKNMVMSFRVSDLQMLLGFVGRSKSGLKHELVTRALQLVQFDCSPELFKKIKELYETRYAKKNSEPAPQPHRPLDPLTMHSTYDRAGAVPRTPLAGPNIDYPVLYGKYLNGLGRLPAKTLKPEVRLVKLPFFNMLDELLKPTELVPQNNEKLQESPCIFALTPRQVELIRNSRELQPGVKAVQVVLRICYSDTSCPQEDQYPPNIAVKVNHSYCSVPGYYPSNKPGVEPKRPCRPINLTHLMYLSSATNRITVTWGNYGKSYSVALYLVRQLTSSELLQRLKTIGVKHPELCKALVKEKLRLDPDSEIATTGVRVSLICPLVKMRLSVPCRAETCAHLQCFDAVFYLQMNEKKPTWMCPVCDKPAPYDQLIIDGLLSKILSECEDADEIEYLVDGSWCPIRAEKERSCSPQGAILVLGPSDANGLLPAPSVNGSGALGSTGGGGPVGSMENGKPGADVVDLTLDSSSSSEDEEEEEEEEEDEDEEGPRPKRRCPFQKGLVPAC
With B1 the binding was “binds”.

No constants are given. Whether binding was seen depends on the method and setting. Binding seen in cells or lysates may run through a third protein. Binding calls can cover weak binding; strength is not graded here.
